The other results are listed elsewhere or left out. The calls rarely recur for the same compound in another form.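 Kinases, fused to nanoluciferase, were expressed in K562 cells; luminescence was measured every 4 h from 2 to 18 h as percent of control (DMSO = 100%, positive control = 0%). A time point is decreased if signal falls significantly (2 sigma). Hits were called by the authors by a rule that is not shown; the count of time points alone does not decide it.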
Assays:
Experiment in all cases: number of time points (of 5) at which kinase-Nluc abundance scored as decreased, DMSO-normalised (count); higher = more persistent destabilization
Conditions in all cases: K562; 2-18 h
NTRK3 = NTRK3 (UniProt Q16288)
PAK4 = PAK4 (UniProt O96013)
PBK = PBK (UniProt Q96KB5)
PDGFRB = PDGFRB (UniProt P09619)
PDK1 = PDK1 (UniProt Q15118)
PDPK1 = PDPK1 (UniProt O15530)
PIK4CA = PIK4CA (UniProt P42356)
PIK4CB = PIK4CB (UniProt Q9UBF8)
PLK1 = PLK1 (UniProt P53350)
PRKAA1 = PRKAA1 (UniProt Q13131)
PRKCA = PRKCA (UniProt P17252)
PTK2 = PTK2 (UniProt Q05397)
PTK2B = PTK2B (UniProt Q14289)
RAF1 = RAF1 (UniProt P04049)
[1] = target: RAF1_S257L (clone: RAF1_mut) (UniProt P04049)
RET = RET (UniProt P07949)
[2] = target: RET_M918T (clone: RET_mut) (UniProt P07949)
RIOK1 = RIOK1 (UniProt Q9BRS2)
RIPK1 = RIPK1 (UniProt Q13546)
RIPK2 = RIPK2 (UniProt O43353)

By UniProt entry, the sequences of proteins in these tests, tags left out. Where a name states a change or a piece, a line headed by the entry shows the natural chain unless it says otherwise.
UniProt Q16288, whole entry, looked up: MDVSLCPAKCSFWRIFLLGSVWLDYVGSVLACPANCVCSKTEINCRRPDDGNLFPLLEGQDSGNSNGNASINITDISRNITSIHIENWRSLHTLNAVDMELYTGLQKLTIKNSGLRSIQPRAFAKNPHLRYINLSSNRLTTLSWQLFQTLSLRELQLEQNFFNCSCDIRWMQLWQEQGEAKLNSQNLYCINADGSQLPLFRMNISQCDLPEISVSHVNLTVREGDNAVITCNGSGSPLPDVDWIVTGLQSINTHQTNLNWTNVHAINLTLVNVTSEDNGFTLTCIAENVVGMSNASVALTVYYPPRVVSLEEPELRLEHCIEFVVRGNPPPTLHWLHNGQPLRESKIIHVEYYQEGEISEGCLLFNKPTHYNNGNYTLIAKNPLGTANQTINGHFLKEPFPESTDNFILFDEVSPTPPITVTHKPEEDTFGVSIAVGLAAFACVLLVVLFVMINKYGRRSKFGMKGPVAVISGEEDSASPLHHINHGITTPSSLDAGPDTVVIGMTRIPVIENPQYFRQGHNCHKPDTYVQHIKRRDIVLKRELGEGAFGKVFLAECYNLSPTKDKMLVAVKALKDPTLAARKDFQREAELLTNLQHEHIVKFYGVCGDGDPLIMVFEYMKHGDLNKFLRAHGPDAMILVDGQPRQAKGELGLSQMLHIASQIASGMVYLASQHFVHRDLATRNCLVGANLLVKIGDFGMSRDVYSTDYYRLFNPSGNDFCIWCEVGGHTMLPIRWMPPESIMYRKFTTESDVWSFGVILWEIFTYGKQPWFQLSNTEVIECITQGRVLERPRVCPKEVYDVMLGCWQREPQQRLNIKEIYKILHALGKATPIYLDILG
UniProt P09619, whole entry: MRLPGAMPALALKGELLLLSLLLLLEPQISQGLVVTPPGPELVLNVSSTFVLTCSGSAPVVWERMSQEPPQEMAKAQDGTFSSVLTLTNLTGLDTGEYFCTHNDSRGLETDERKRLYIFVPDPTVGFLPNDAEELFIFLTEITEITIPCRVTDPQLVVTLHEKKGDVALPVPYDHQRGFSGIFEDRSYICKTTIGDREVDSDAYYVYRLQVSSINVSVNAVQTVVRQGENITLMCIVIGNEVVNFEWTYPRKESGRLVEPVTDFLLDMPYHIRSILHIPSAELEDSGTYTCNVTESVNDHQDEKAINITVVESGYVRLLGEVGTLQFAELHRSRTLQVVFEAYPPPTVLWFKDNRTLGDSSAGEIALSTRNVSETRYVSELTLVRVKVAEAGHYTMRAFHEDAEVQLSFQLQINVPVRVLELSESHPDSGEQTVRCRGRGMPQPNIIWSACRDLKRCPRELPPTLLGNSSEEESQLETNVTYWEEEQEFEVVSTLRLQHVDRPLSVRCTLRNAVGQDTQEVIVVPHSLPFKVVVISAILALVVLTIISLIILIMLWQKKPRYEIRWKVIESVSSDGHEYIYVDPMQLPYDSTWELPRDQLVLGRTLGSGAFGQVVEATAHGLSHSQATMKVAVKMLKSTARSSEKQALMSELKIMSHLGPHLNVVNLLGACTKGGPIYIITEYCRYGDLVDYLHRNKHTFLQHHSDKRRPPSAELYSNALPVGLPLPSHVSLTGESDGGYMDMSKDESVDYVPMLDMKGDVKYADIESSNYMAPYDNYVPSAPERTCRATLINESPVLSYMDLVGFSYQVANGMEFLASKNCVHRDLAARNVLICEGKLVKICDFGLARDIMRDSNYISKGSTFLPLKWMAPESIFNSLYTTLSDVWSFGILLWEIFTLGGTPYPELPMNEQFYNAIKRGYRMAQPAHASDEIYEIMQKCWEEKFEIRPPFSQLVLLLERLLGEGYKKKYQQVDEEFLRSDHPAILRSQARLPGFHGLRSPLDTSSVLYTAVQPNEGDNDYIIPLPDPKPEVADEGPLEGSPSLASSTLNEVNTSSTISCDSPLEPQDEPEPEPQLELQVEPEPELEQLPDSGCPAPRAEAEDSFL
UniProt Q15118, whole entry, looked up: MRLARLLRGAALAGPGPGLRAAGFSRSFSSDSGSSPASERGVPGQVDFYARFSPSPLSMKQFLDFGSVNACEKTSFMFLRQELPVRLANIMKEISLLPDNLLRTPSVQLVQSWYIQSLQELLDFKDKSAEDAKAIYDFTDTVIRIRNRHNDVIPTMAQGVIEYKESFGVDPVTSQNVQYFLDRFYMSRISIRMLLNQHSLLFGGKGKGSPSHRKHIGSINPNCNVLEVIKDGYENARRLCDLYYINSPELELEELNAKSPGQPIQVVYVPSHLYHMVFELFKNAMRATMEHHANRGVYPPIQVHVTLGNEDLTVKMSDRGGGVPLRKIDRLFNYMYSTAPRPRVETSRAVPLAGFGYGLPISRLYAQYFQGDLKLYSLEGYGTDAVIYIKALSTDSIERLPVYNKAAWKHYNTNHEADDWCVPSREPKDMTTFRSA
UniProt O15530: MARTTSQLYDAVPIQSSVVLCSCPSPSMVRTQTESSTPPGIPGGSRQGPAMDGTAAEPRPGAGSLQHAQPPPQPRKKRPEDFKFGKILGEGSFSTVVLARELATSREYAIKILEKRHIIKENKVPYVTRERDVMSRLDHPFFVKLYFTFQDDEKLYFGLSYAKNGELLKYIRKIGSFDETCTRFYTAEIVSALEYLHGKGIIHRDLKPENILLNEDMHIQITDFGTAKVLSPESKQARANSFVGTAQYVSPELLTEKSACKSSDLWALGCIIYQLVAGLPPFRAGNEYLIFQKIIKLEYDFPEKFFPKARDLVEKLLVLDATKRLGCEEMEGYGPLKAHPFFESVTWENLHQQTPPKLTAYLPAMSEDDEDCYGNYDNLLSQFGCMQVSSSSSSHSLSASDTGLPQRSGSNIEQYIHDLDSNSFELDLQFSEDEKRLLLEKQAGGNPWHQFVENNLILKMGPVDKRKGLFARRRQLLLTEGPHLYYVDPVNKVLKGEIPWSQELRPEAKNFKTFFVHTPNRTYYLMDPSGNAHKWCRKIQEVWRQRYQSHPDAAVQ
UniProt P42356, whole entry, looked up: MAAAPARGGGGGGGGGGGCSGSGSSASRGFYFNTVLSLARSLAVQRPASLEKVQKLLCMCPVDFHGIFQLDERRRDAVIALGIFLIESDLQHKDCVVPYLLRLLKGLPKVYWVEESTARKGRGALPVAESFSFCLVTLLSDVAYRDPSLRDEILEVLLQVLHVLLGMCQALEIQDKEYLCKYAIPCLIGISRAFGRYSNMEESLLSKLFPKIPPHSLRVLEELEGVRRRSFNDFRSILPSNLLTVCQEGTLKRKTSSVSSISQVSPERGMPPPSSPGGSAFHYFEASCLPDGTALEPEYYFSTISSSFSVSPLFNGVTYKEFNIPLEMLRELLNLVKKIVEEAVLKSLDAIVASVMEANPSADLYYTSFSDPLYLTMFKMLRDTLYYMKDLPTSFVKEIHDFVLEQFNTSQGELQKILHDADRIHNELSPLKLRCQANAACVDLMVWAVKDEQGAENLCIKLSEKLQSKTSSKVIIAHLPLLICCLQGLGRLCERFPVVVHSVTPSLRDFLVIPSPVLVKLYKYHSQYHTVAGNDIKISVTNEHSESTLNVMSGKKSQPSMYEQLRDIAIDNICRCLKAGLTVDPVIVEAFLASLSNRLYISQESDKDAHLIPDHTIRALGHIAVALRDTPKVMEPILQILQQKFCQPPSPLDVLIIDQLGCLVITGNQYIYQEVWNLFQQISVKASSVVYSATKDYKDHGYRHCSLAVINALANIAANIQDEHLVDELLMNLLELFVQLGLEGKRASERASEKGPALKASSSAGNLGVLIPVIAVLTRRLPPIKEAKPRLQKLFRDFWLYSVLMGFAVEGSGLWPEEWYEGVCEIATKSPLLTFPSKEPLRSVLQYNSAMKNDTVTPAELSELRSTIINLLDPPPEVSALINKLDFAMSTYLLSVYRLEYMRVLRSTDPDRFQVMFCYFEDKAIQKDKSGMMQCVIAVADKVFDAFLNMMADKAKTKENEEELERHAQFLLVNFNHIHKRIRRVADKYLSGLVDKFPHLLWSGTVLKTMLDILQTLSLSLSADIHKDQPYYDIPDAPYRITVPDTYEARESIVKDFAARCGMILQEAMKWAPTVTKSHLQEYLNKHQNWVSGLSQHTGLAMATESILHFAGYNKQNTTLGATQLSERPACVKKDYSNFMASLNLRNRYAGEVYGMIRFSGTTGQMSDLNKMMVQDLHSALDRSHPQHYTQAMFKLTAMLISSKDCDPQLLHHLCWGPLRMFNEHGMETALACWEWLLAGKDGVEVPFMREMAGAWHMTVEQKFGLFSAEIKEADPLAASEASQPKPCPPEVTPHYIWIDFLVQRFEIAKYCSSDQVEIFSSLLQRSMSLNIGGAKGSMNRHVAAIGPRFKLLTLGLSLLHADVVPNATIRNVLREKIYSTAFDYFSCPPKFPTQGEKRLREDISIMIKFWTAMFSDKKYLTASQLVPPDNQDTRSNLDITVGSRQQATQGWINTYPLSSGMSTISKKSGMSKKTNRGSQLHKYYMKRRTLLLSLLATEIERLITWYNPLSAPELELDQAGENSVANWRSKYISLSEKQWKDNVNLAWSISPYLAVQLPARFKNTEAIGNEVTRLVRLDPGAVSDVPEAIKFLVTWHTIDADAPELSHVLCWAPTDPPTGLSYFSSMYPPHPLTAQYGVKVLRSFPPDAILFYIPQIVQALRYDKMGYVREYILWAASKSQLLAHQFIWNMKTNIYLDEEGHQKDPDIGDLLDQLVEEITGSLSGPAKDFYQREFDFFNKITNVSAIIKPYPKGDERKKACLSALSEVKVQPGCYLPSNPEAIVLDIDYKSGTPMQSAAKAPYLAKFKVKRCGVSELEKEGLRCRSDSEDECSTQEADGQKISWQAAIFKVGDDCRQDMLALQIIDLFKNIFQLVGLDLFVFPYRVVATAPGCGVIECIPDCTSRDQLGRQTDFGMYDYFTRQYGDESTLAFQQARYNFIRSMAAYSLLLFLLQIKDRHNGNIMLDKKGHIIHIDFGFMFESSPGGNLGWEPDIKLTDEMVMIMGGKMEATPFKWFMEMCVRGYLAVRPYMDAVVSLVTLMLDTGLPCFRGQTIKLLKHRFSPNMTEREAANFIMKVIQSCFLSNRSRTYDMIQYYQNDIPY
UniProt Q9UBF8: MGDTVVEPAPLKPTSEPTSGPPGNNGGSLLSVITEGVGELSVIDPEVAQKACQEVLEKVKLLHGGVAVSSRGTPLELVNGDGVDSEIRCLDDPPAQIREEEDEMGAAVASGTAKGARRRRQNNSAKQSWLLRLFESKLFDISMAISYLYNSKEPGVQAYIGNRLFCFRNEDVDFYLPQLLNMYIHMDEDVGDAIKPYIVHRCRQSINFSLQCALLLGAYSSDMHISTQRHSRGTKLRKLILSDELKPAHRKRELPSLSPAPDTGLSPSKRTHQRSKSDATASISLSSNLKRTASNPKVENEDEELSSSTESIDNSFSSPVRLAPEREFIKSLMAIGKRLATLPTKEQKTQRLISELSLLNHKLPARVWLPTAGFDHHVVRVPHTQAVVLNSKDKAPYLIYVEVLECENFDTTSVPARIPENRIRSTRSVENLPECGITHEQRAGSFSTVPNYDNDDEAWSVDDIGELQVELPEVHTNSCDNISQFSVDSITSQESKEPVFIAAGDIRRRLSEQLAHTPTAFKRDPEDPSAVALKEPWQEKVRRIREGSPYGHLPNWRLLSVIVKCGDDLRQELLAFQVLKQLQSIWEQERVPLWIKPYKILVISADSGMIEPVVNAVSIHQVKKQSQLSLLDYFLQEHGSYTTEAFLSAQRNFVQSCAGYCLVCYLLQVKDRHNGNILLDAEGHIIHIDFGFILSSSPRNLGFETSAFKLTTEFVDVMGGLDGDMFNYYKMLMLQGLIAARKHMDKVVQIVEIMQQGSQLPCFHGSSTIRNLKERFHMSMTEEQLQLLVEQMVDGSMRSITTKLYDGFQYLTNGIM
UniProt P53350, whole entry: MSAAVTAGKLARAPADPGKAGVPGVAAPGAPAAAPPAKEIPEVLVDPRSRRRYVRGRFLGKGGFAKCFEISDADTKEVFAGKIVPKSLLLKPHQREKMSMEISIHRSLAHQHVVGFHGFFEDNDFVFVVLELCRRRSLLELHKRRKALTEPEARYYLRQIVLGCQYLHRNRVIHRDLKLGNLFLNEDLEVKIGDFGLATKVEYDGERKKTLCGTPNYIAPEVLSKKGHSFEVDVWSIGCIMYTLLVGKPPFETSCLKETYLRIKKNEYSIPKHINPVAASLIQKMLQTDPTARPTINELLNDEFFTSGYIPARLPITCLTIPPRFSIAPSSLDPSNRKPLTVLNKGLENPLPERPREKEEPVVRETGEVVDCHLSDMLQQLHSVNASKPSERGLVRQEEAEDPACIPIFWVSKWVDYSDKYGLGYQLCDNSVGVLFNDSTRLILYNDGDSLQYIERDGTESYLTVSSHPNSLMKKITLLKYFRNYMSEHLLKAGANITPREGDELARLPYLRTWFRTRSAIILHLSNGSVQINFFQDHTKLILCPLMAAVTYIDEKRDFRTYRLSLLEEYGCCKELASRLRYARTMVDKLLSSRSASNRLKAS

Measured: number of time points

CCCS(=O)(=O)Nc1ccc(F)c(-n2cc(-c3cncnc3)c3nc(N(C)C4CCN(CC)CC4)ccc32)c1F (2 µM)
0: NTRK3 | PAK4 | PBK | PDGFRB | PDK1 | PDPK1 | PIK4CA | PIK4CB | PLK1 | PRKAA1 | PRKCA | PTK2 | PTK2B | RAF1 | [1] | RET | [2] | RIOK1 | RIPK1 | RIPK2

C/C(O)=C(\C#N)C(=O)Nc1cc(Br)ccc1Br (10 µM)
0: NTRK3 | PAK4 | PBK | PDGFRB | PDK1 | PDPK1 | PIK4CA | PIK4CB | PLK1 | PRKAA1 | PRKCA | PTK2 | PTK2B | RAF1 | [1] | RET | [2] | RIOK1 | RIPK1 | RIPK2

O=C(O)c1nn(Cc2ccc(Cl)cc2Cl)c2ccccc12 [Lonidamine] (10 µM)
0: NTRK3 | PAK4 | PBK | PDGFRB | PDK1 | PDPK1 | PIK4CA | PIK4CB | PLK1 | PRKAA1 | PRKCA | PTK2 | PTK2B | RAF1 | [1] | RET | [2] | RIOK1 | RIPK1 | RIPK2

O=c1[nH]c2ccccc2n1C1CCN(CCCC(c2ccc(F)cc2)c2ccc(F)cc2)CC1 [Pimozide] (2.5 µM)
0: NTRK3 | PAK4 | PBK | PDGFRB | PDK1 | PDPK1 | PIK4CA | PIK4CB | PLK1 | PRKAA1 | PRKCA | PTK2 | PTK2B | RAF1 | [1] | RET | [2] | RIOK1 | RIPK1 | RIPK2

CC(=O)O[C@H]1[C@H]2[C@@H](OC(=O)Cc3ccccc3)[C@@H](C)C[C@]2(OC(C)=O)C(=O)/C(C)=C/[C@@H]2[C@H](CC[C@@]13CO3)C2(C)C [Euphorbiasteroid] (10 µM)
0: NTRK3 | PAK4 | PBK | PDGFRB | PDK1 | PDPK1 | PIK4CA | PIK4CB | PLK1 | PRKAA1 | PRKCA | PTK2 | PTK2B | RAF1 | [1] | RET | [2] | RIOK1 | RIPK1 | RIPK2

CC(=O)c1c(O)c(C)c(O)c(Cc2c(O)c3c(c(C(=O)/C=C/c4ccccc4)c2O)OC(C)(C)C=C3)c1O [Rottlerin] (2 µM)
0: NTRK3 | PAK4 | PBK | PDGFRB | PDK1 | PDPK1 | PIK4CA | PIK4CB | PLK1 | PRKAA1 | PRKCA | PTK2 | PTK2B | RAF1 | [1] | RET | [2] | RIOK1 | RIPK1 | RIPK2

Reference: the supplement of paper PMC12823440, “Inhibitors supercharge kinase turnover through native proteolytic circuits” (Nature, 2025)
